# Out of some 220,000 compounds screened, about 770 (0.35%) were called active. This list was built around the results that the source calls inconclusive (neither active nor inactive); the mix of calls is not that of the screen. Rule as the data show it: active = binding response below about 49% or above about 150%; inconclusive = no clear call, values can overlap the other calls; inactive = in between.
# Protein sequences, listed by entry. Tags and fused reporters are not part of them.
# UniProt P09471, whole entry, looked up: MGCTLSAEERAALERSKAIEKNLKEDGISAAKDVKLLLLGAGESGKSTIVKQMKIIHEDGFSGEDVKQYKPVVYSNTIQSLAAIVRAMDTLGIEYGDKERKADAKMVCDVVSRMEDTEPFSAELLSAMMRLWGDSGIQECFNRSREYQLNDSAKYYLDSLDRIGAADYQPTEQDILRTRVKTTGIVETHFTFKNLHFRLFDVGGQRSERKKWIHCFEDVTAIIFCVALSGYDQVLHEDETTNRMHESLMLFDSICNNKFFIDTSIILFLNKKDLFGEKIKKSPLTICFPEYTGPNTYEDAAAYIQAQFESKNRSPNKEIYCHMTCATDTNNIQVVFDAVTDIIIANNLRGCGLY
# Target: Guanine nucleotide-binding protein G(o) subunit alpha (Homo sapiens) (UniProt P09471)
# Assay: RGS7-Galphao binding modulators, primary screen, biochemical, multiplexed bead flow cytometry (AID 1439);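 also: fluorescent Galphao held in activated GDP-AlF4 state binding bead-coupled RGS7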
# Conditions: at 10 µM, actives lie on both sides
row,Compound,binding response (% of control)
1,COc1ccc(NC(=O)/C(Cl)=C(/Cl)S(=O)Cc2ccccc2Cl)cn1 (stereo unspecified),inactive: 97.8%
2,O=C(O)CC1(CC(=O)Nc2ccc(F)c(Cl)c2)CCCCC1,inconclusive: 69.4%
3,O=C1NC(=S)N/C1=C\c1ccccc1OCc1ccc(C(=O)O)cc1,inconclusive: 105%
4,CN1c2ccc(Cl)cc2C(=O)NC1c1ccc([N+](=O)[O-])s1 (stereo unspecified),inconclusive: 81.9%
5,NC(=O)CC(NC(=O)Cc1ccc(Cl)cc1)c1ccc(NCc2ccccc2)c([N+](=O)[O-])c1 (stereo unspecified),inconclusive: 105%
6,Cc1ccccc1Nc1cc(C(=O)NCC2CCCO2)c2ccccc2n1 (stereo unspecified),inconclusive: 49.1%
7,O=C1C(C=NCc2ccco2)=C(O)c2ccccc21,inactive: 92.9%
8,Cc1nc(C)n(CC(=O)c2ccc(Cl)cc2Cl)n1,inconclusive: 109%
9,S=c1[nH]nc([C@@H]2C[C@H]2c2ccccc2)n1-c1ccccc1Cl,inconclusive: 107%
10,CC(C)(CNC(=O)c1ccc(S(=O)(=O)N2CCCC2)cc1)N1CCOCC1,inactive: 99.3%
11,Cc1ccc(-c2cc(C(=O)NN3CCOCC3)c3cc(Br)ccc3n2)o1,inconclusive: 80.6%
12,c1ccc(-c2cc3c(N4CCCC4)ncnc3s2)cc1,inconclusive: 111%
13,CCn1ccnc1CN1CCN(CCC(C)C)C(CCO)C1 (stereo unspecified),inactive: 106%
14,Cc1c(NS(=O)(=O)c2ccc3nc(COc4ccccc4Cl)[nH]c3c2)c(=O)n(-c2ccccc2)n1C,inconclusive: 103%
15,O=C(CSc1nnnn1Cc1ccccc1)Nc1ccccc1,inconclusive: 133%
16,O=C(O)CC(SCC(=O)Nc1ccc(Cl)c(S(=O)(=O)N2CCOCC2)c1)C(=O)O (stereo unspecified),inconclusive: 570%
17,O=C(Cc1ccc([N+](=O)[O-])cc1)c1c(O)cc(O)cc1O,inconclusive: 105%
18,COc1cccc(C(=O)C(C#N)=C(SC)SC)c1,inconclusive: 61.4%
19,O=C(N/C=C/n1cnc2cc(C(F)(F)F)ccc21)c1ccccc1,inactive: 97.9%
20,CNc1nc(NC#N)nc(SC)n1,inconclusive: 77.7%
21,COC(=O)c1nc(N)sc1-c1ccc(Cl)c(Cl)c1,inconclusive: 123%
22,Cc1ccc(NC(=O)CN(C)Cc2nc3c(Br)cc(Br)cc3c(=O)[nH]2)cc1,inactive: 104%
23,CCC(Sc1nc2ccccc2[nH]1)C(=O)Nc1ccc(NC(C)=O)cc1 (stereo unspecified),inconclusive: 117%

row,Compound,binding response (% of control)
1,COc1ccc(/C=C2\SC(N3CCc4ccccc4C3)=NC2=O)cc1OC,inactive: 102%
2,COc1ccc(C(=O)NN/C(=N/S(=O)(=O)c2ccc(C)cc2)c2ccccc2)cc1,inconclusive: 74.9%
3,Cc1ccccc1OCC(=O)N/N=C/c1cn(C)c2ccccc12,inconclusive: 79.4%
4,CCOC(=O)C1CCCN(c2c(NCCc3ccccc3)c(=O)c2=O)C1 (stereo unspecified),inconclusive: 77.2%
5,COc1ccc2[nH]c3c(=O)n(/N=C/c4ccc(OC)c(CN5CCCC5)c4)c(C)nc3c2c1,inconclusive: 71.5%
6,O=C(CN1CCN(c2ccccc2O)CC1)Nc1cc([N+](=O)[O-])ccc1Cl,inconclusive: 61.2%
7,O=C(c1ccc(Cl)s1)N1CCN(c2ncccn2)CC1,inconclusive: 109%
8,CC(Sc1ccc2c(c1)OCCO2)C(=O)Nc1ccc(N2CCOCC2)cc1 (stereo unspecified),inactive: 98.8%
9,C/C(CC(=O)Nc1cccc(C(F)(F)F)c1)=N/NC(=O)C(=O)NCCO,inconclusive: 111%
10,O=C(O)c1ccc[nH]c1=S,inconclusive: 77%
11,Cc1onc(-c2c(F)cccc2Cl)c1C(=O)c1ccc(F)cc1,inconclusive: 133%
12,CC(=O)NCCc1nc2ccccc2n1CCc1ccccc1,inactive: 99%
13,Cc1occc(=O)c1OCc1c(F)cccc1Cl,inconclusive: 97%
14,CCCc1nnc(NC(=O)C(=O)NCCN(CC)CC)s1,inconclusive: 116%
15,CC(=O)c1c(N2CCN(CCO)CC2)nc(=S)n(-c2ccccc2)c1C,inconclusive: 81.7%
16,COc1ccc(-c2cc(C(=O)Nc3ccc(S(=O)(=O)Nc4ncccn4)cc3)c3ccccc3n2)cc1,inconclusive: 72.1%
17,O=C(c1ccccc1F)N1CCN(c2ccc([N+](=O)[O-])cc2-n2cccc2)CC1,inconclusive: 98.5%
18,O=C(Nc1ccc2c(c1)OCO2)c1ccc(=O)[nH]n1,inconclusive: 98.1%
19,O=C(COC(=O)C1CCN(S(=O)(=O)c2cccs2)CC1)Nc1ccccc1,inconclusive: 101%
20,CC(C)(CC(=O)O)CC(=O)NNc1ncccc1C#N,inconclusive: 130%
21,CC1CC2(CCCCC2)N2C(=O)C(=O)c3cccc1c32 (stereo unspecified),active: 29.2%
22,CCNc1ccc2noc3c2c1C(=O)c1ccccc1-3,active: 45.6%
23,CCC(C)c1ccc(NC(=S)NCCn2cc(Br)cn2)cc1 (stereo unspecified),inactive: 100%

row,Compound,binding response (% of control)
1,COC(=O)CNC(=O)c1cc(-c2ccncc2)nc2c(C)c(Cl)ccc12,inconclusive: 87.4%
2,CN(C)c1ccc(C(=O)NNC(=O)c2ccc(Cl)cc2)cc1,inconclusive: 83%
3,CCCCC(=O)NC(=S)NNC(=O)CCc1ccccc1,inconclusive: 102%
4,COc1cccc(OC)c1C(=O)NC(=S)Nc1ccc2oc(-c3ccncc3)nc2c1,inconclusive: 85.7%
5,COc1ccccc1/C=C(/CC(=O)NCc1ccccc1)c1nc2ccccc2s1,inactive: 101%
6,CCN(CC)CC(C)CNC(=O)CC(C(=O)N1CCc2ccccc21)n1ccnc1 (stereo unspecified),inactive: 103%
7,Cc1cc2c(C)cc(=O)oc2c2c1NCCC2,inactive: 95.3%
8,NC(=O)[C@H]1CC2(CC(c3cccc(NC(=O)COc4ccc(Cl)cc4)c3)=NO2)CN1C(=O)c1ccc(Cl)cc1 (stereo partly specified),inconclusive: 91.6%
9,O=C1N/C(=N/N=C/c2ccccc2O)SC1Cc1ccc(F)cc1 (stereo unspecified),inconclusive: 91.5%
10,C=C(C)c1cccc(C(C)(C)NC(=O)NCCCN2CCCC2=O)c1,inactive: 110%
11,COc1cc(N=c2oc3c(C)ncc(CO)c3cc2C(N)=O)cc(OC)c1OC,inactive: 105%
12,O=c1[nH]nc(-c2cccs2)c2ccccc12,inconclusive: 103%
13,COc1cc(NS(=O)(=O)c2ccc(NC(=S)NC(=O)c3ccco3)cc2)nc(OC)n1,inconclusive: 116%
14,COCCNS(=O)(=O)c1cc(F)ccc1OC,inactive: 98.7%
15,COc1ccc(CN2CCNC(=O)C2CC(=O)NCCc2nc(C)c(C)s2)c(OC)c1 (stereo unspecified),inconclusive: 111%
16,CCc1nnc(NC(=O)c2ccc3ncsc3c2)s1,inconclusive: 88.6%
17,CC(CN1CCCCC1)NC(=O)c1cc(-c2ccccn2)nc2ccc(Cl)cc12 (stereo unspecified),inconclusive: 89.1%
18,Cc1csc(SCC(=O)Nc2ccc3c(c2)OCCO3)n1,inconclusive: 106%
19,Cc1ccc(-c2n[nH]c(=S)n2/N=C/c2ccncc2)cc1,inactive: 102%
20,C=CCNC(=O)c1onc(CSc2cc(C)cc(C)c2)c1C(=O)NCC=C,inconclusive: 116%
21,C/C(=N\NC(=O)CO/N=C(\C)c1cccs1)c1ccc(N)cc1,inconclusive: 96.1%
22,O=c1[nH]cnc2c1ncn2Cc1ccc([N+](=O)[O-])cc1,inconclusive: 131%
23,Cc1cc([N+](=O)[O-])c2c(c1C)C1C=CCC1C(c1ccccn1)N2 (stereo unspecified),inactive: 101%

row,Compound,binding response (% of control)
1,Cc1ccccc1OCCC(=O)OCC(=O)Nc1ccc(C(N)=O)cc1,inconclusive: 110%
2,COc1ccccc1NC(=O)NCc1nc(-c2ccc(C(F)(F)F)cc2)no1,inconclusive: 122%
3,CCC(=O)Nc1ccc(C=C(C(C)=O)C(C)=O)cc1,inconclusive: 82.8%
4,O=C(Nc1nnc(C2CC2)s1)c1n[nH]c(=O)c2ccccc12,inconclusive: 100%
5,CCN(CC)c1nc(Oc2ccc(C(=O)OC)cc2)nc(N2CCOCC2)n1,inconclusive: 126%
6,CCCCn1c(=O)[nH]c(=O)c2c1nc(-c1ccc(-c3ccc(F)cc3)o1)n2C,inconclusive: 109%
7,Cc1cccc(N=C2NC(=O)/C(=C/c3cccn3C)S2)c1,inconclusive: 212%
8,O=C(NCCCl)NNC(=O)c1cc2ccccc2cc1O,inconclusive: 109%
9,O=C(O)c1ccc(-n2nc(C(F)(F)F)c3c2CCCC3)cc1,inconclusive: 92.9%
10,CCOC(=O)C1CCN(c2ncnc3c(C)csc23)CC1,inconclusive: 97.5%
11,Cc1c(Cl)cccc1NC(=S)Nn1cnnc1,inconclusive: 76.3%
12,CC(C)(C)OC(=O)NCCCCCc1nnc(SCc2ccc(F)cc2)o1,inconclusive: 18.2%
13,CC(C)(C)C(=O)NC1(C(F)(F)F)NC(=O)N(c2ccc(F)cc2)C1=O (stereo unspecified),inconclusive: 118%
14,O=C(OCC(=O)c1ccccc1Br)c1ccncc1,inconclusive: 80.8%
15,O=C(O)CC1(CC(=O)N2CCN(CCO)CC2)CCCC1,inconclusive: 104%
16,O=c1[nH]nc(SCc2nnc(-c3ccc([N+](=O)[O-])cc3)o2)n1C1CCCCC1,inconclusive: 99%
17,O=C(Nc1ccccc1)N(CCCN1CCOCC1)Cc1cc2cc3c(cc2[nH]c1=O)OCCO3,inactive: 99.2%
18,COc1ccc(N(CC(=O)NC2CCCCC2)C(=O)CCCC(=O)Nc2ccccn2)c(OC)c1,inactive: 132%
19,CCc1cccc(CC)c1NC(=O)C[n+]1cccc(C(N)=O)c1,inconclusive: 87.3%
20,O=C(NC(c1ccccc1)c1ccccc1)c1ccc(S(=O)(=O)C(F)F)cc1,inactive: 110%
21,Cc1oc(S(=O)(=O)N2CCCC2)cc1C(=O)Nc1ccccc1,inconclusive: 113%
22,CCc1sc(C(C2C(=O)CC(C)(C)CC2=O)C2C(=O)CC(C)(C)CC2=O)cc1[N+](=O)[O-],inactive: 81.9%

# No new results follow: six of the compounds above.
row,Compound,binding response (% of control)
1,Cc1ccccc1OCCC(=O)OCC(=O)Nc1ccc(C(N)=O)cc1,inconclusive: 110%
2,COc1ccccc1NC(=O)NCc1nc(-c2ccc(C(F)(F)F)cc2)no1,inconclusive: 122%
3,CCC(=O)Nc1ccc(C=C(C(C)=O)C(C)=O)cc1,inconclusive: 82.8%
4,O=C(Nc1nnc(C2CC2)s1)c1n[nH]c(=O)c2ccccc12,inconclusive: 100%
5,CCN(CC)c1nc(Oc2ccc(C(=O)OC)cc2)nc(N2CCOCC2)n1,inconclusive: 126%
6,CCCCn1c(=O)[nH]c(=O)c2c1nc(-c1ccc(-c3ccc(F)cc3)o1)n2C,inconclusive: 109%

# From PubChem BioAssay AID1439 (NMMLSC, 2008)
